From PubChem BioAssay AID1487 (National Center for Advancing Translational Sciences (NCATS), 2009) come the findings set out here.

The assay in a line: qHTS Assay for Modulators of Lamin A Splicing. To be noted: HeLa LMNA splicing GFP/RFP minigene ratio, 48 h. The procedure, abridged: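 S3 HeLa stable clones carrying a lamin A-EGFP splicing minigene plus DsRed2 were seeded at 600 cells/well in Opti-MEM with 2% FBS, pin-dosed and incubated 48 h at 37°C. Acumen cytometry (488 nm) gave the GFP/RFP total-intensity ratio.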
For orientation: Quantitative high-throughput screening tests each substance at several concentrations.

Setting [1] is: measured here: RFP viability control channel.
[2] abbreviates: measured here: GFP splicing reporter channel.

The list shows a part of the results. Further columns of the screen follow, without active or inactive calls. Compounds called inactive in the main read-out are mostly missing here. Potencies come from curve fits of mixed quality, noted in brackets.

As usually defined, the AC50 is the concentration at which the activity in the assay is half-maximal. `CCN(CC)C(=O)Cn1c(=O)n(-c2ccccc2)c(=O)n1CC(=O)N(CC)CC`: the AC50 under setting [1] is 5.62 µM [rising, single point].

Take `CCOC(=O)C1(Cc2cccc(OC)c2)CCCN(Cc2nccn2CC)C1` (configuration not stated): the AC50 under setting [1] is 35.5 µM [falling, single point].

`Fc1ccc(-c2noc3ncnc(N4CCCCC4)c23)cc1`: under setting [2], the AC50 is 31.6 µM [rising, single point].

On to `COC(=O)Cn1c(CCS(=O)(=O)c2ccc(C)c(C)c2)nc2ccccc21`, for which the AC50 under setting [1] is 22.4 µM [rising, partial curve, poor fit].

`COc1ccc(S(=O)(=O)NCCc2cn3ccsc3n2)cc1`: under setting [2], the AC50 was 3.98 µM [falling, partial curve, poor fit].

For `COc1ccccc1N=c1scc(-c2ccc3c(c2)NC(=O)CO3)n1CC1CCCO1` (configuration not stated), the AC50 under setting [1] was 10 µM [rising, single point].

On to `CCc1ccc(NC(=O)Cn2nnc(C(=O)Nc3cc(C)ccc3OC)c2N)cc1`, for which the AC50 under setting [1] is 12.6 µM [falling, partial curve, poor fit].

For the molecule `CCc1n[nH]c(=S)n1/N=C/c1cc(Br)c(OC)cc1OC`, under setting [1], the AC50 is 22.4 µM [rising, single point].

Consider `Cc1cccc(-c2cc3nc(-c4ccccc4)cc(N4CCC5(CC4)OCCO5)n3n2)c1`, for which the AC50 under setting [1] is 31.6 µM [rising, single point].

Consider `O=C(NCc1cccnc1)C(=O)NCC(c1ccco1)N1CCOCC1` (configuration not stated), for which the AC50 under setting [1] is 1.12 µM [falling, partial curve].

Take `COc1ccc(NC(=O)/C(Cl)=C(/Cl)S(=O)Cc2ccccc2)cn1` (configuration not stated): the AC50 was 6.31 µM [falling, full curve] under setting [2] and 7.94 µM [falling, partial curve] under setting [1].

As to `Cc1c(Cl)cnc(NC(=O)COC(=O)c2cccc(S(=O)(=O)N3c4ccccc4CC3C)c2)c1Cl` (configuration not stated), the AC50 under setting [1] is 0.126 µM [rising, full curve].

With `CCN(CC)c1cc2nonc2c2nonc12`, the AC50 under setting [1] was 2.82 µM [falling, partial curve].

With `Cc1ccc(N2C(=O)C3C4C=CC(CNC(=S)Nc5ccc(F)cc5)(O4)C3C2=O)cc1` (configuration not stated), the AC50 was 11.2 µM [rising, partial curve] under setting [2] and 14.1 µM [rising, partial curve] under setting [1].

As to `CC(C)Nc1nnc(SCC(=O)c2c[nH]c3ccccc23)s1`, the AC50 reads like this: under setting [2], 17.8 µM [rising, single point]; under setting [1], 22.4 µM [rising, single point].

On to `O=C(CCN1CCN(c2ccccc2)CC1)Nc1ccc(Cl)cc1`, for which the AC50 was 14.1 µM [rising, single point] under setting [2] and 35.5 µM [rising, single point] under setting [1].

As to `Cc1cccc(-n2ncc3c(Nc4c(C)cc(C)cc4C)ncnc32)c1`, the AC50 reads like this: under setting [2], 8.91 µM [falling, partial curve, poor fit]; under setting [1], 10 µM [falling, partial curve, poor fit].

Take `COc1ccc(NC(=O)c2cc(-c3cc(C)cc(C)c3O)n[nH]2)cc1Cl`: the AC50 under setting [1] was 12.6 µM [rising, partial curve].

For the molecule `Cc1ccc(N=Nc2c(O)n(CN3CCOCC3)c3ccccc23)cc1`, the AC50 is 25.1 µM [falling, single point] under setting [2] and 35.5 µM [falling, single point] under setting [1].

`COc1ccc(/C=C2/SC(=O)N(CCNC(=O)C3CCCN3C(=O)c3cccs3)C2=O)cc1` (configuration not stated): the AC50 under setting [2] is 7.94 µM [rising, partial curve, poor fit] and the AC50 under setting [1] is 14.1 µM [rising, partial curve].

Turning to `CCCn1c(N)c(C(=O)CSc2ncc(C(F)(F)F)cc2Cl)c(=O)[nH]c1=O`, the AC50 by setting is: under setting [2], 12.6 µM [falling, partial curve, poor fit]; under setting [1], 1.78 µM [falling, full curve, poor fit].

With `CC(Cc1cccs1)NC(=O)Nc1ccc(Cl)cc1` (configuration not stated), the AC50 under setting [1] was 35.5 µM [rising, single point].

Turning to `O=C(c1csc2c1CCCC2)N1CCN(c2cccc(C(F)(F)F)c2)CC1`, the AC50 under setting [2] is 31.6 µM [rising, single point] and the AC50 under setting [1] was 25.1 µM [rising, single point].

`CC(C)NC(=O)c1ccccc1S(=O)(=O)c1ccccc1C#N`: the AC50 under setting [2] was 3.98 µM [falling, partial curve] and the AC50 under setting [1] was 5.01 µM [falling, partial curve, poor fit].

`COc1ccc(C(=S)NC2CCCCC2)cc1`: under setting [1], the AC50 is 31.6 µM [rising, single point].

For `O=C(CCc1ccc(Oc2cc([N+](=O)[O-])cc([N+](=O)[O-])c2)cc1)N1CCCCCC1`, the AC50 under setting [1] is 15.8 µM [rising, single point].

Regarding `CCNc1ncc2ncc(=O)n(Cc3cccs3)c2n1`, the AC50 is, setting by setting: under setting [2], 17.8 µM [falling, single point]; under setting [1], 22.4 µM [falling, single point].

For `Cc1ccc2c(c1)c(C)cc[n+]2Cc1ccccc1`, the AC50 under setting [1] was 10 µM [rising, partial curve].

For the molecule `COc1ccc(NC(=O)/C(Cl)=C(/Cl)S(=O)Cc2ccc(Cl)cc2)cn1` (configuration not stated), the AC50 under setting [2] was 3.98 µM [falling, full curve].

`COc1ccc(Cn2ccc3nc(C)c(C(=O)Nc4ccc(OC)cc4OC)cc3c2=O)cc1`: under setting [2], the AC50 is 15.8 µM [rising, partial curve, poor fit].

`Cc1ccc(NC(=O)Cn2cc(S(=O)(=O)NC(C)C)c(S(=O)(=O)NC(C)C)c2)cc1Cl`: under setting [1], the AC50 is 35.5 µM [rising, single point].

Turning to `Cc1c(CN2CCC(CO)(CCOc3ccccc3)CC2)[nH]c2c(Cl)cccc12`, the AC50 is, setting by setting: under setting [2], 12.6 µM [falling, partial curve]; under setting [1], 11.2 µM [falling, partial curve].

As for `COCCn1c(-c2ccc(Cl)cc2)cnc1SCC(=O)NCc1cccs1`, the AC50 under setting [1] is 17.8 µM [rising, single point].

For `COc1ccccc1CNc1nc(-c2ccc3c(c2)OCO3)nc2ccccc12`, the AC50 reads like this: under setting [2], 15.8 µM [falling, partial curve]; under setting [1], 15.8 µM [falling, partial curve].

In the case of `Cc1ccc(NC(=O)c2cc(-c3ccccc3)nn2-c2ccccc2)cc1`, the half-maximal activity concentration (AC50) is, setting by setting: under setting [2], 14.1 µM [rising, single point]; under setting [1], 25.1 µM [rising, partial curve].

For `O=C1CN(C(=O)c2ccc(F)c(S(=O)(=O)N3CCOCC3)c2)c2ccccc2N1`, under setting [2], the AC50 was 0.00891 µM [falling, full curve, poor fit].

Turning to `Cc1ccc(C)c(N2CCN(C(=O)COc3cc(=O)n(C)c4ccccc34)CC2)c1`, the AC50 is, setting by setting: under setting [2], 12.6 µM [rising, single point]; under setting [1], 20 µM [rising, single point].

For the molecule `Cc1ccc(C)c(N(C(=O)c2nsc(Cl)c2Cl)C(C(=O)NC2CCCC2)c2ccc(O)cc2)c1` (configuration not stated), the concentration at half-maximal activity (AC50) under setting [1] was 15.8 µM [rising, single point].

Regarding `COc1ccccc1-c1nnc(SCc2nc3ccccc3s2)n1C`, the AC50 under setting [2] was 1.26 µM [falling, single point].

Turning to `O=C(CSc1nc(C2CC2)nc2ccccc12)Nc1ccc2c(c1)OCCO2`, the AC50 is 22.4 µM [falling, single point] under setting [2] and 35.5 µM [falling, single point] under setting [1].

With `CCC(=O)NC(c1cccc([N+](=O)[O-])c1)c1c(OC(C)=O)ccc2ccccc12` (configuration not stated), the AC50 under setting [1] was 14.1 µM [rising, single point].

Take `CN1C(=O)/C(=C\c2ccncc2)SC1=Nc1ccccc1`: the AC50 is, setting by setting: under setting [2], 8.91 µM [rising, partial curve, poor fit]; under setting [1], 8.91 µM [rising, partial curve].

Consider `CCCCOC(=O)Nc1ccc(S(=O)(=O)Nc2ccc([N+](=O)[O-])cc2)cc1`, for which the AC50 under setting [1] was 35.5 µM [rising, single point].

Regarding `Cc1cc(C(=O)CN2C(=O)C(=O)N(Cc3ccccc3)C2=O)c(C)n1-c1ccc2c(c1)OCCO2`, the AC50 under setting [2] is 2 µM [rising, full curve, poor fit] and the AC50 under setting [1] was 5.01 µM [rising, partial curve].

As to `Cc1cccc(N=C2NN=C(c3c[nH]c4ccccc34)CS2)c1`, the AC50 under setting [2] is 22.4 µM [falling, single point] and the AC50 under setting [1] is 31.6 µM [falling, single point].

As for `COc1cc(C(=O)NNC(=O)c2ccc(NC(=O)C(C)(C)C)cc2)cc(OC)c1OC`, the AC50 under setting [1] was 2.82 µM [falling, full curve].

On to `O=C1CCc2cc(S(=O)(=O)N3CCN(Cc4ccc5c(c4)OCO5)CC3)ccc2N1`, for which the AC50 reads like this: under setting [2], 12.6 µM [rising, partial curve, poor fit]; under setting [1], 12.6 µM [rising, partial curve].

Regarding `CC(=O)Nc1c(C)nn(-c2ccccc2)c1N1CCC(C(=O)Nc2ccc(C)cc2Cl)CC1`, the AC50 reads like this: under setting [2], 0.158 µM [rising, full curve, poor fit]; under setting [1], 2.82 µM [rising, partial curve, poor fit].

Consider `COc1cccc(/C=N/NC(=O)C(=O)N/N=C/c2cccc(OC)c2OC)c1OC`, for which the AC50 reads like this: under setting [2], 17.8 µM [falling, partial curve, poor fit]; under setting [1], 1.26 µM [falling, full curve, poor fit].

`CCOC(=O)C1CCCN(C(=O)c2ccc(C)c(NC(=O)c3nsc4ccccc34)c2)C1` (configuration not stated): under setting [2], the AC50 was 0.562 µM [rising, single point].

As to `C1CCC(C(CC2CCCCN2)C2CCCCC2)CC1` (configuration not stated), the AC50 under setting [2] is 2.24 µM [falling, partial curve] and the AC50 under setting [1] was 7.08 µM [falling, partial curve].

For the molecule `O=C1/C(=C\c2ccccc2)CCc2c1[nH]c1ccccc21`, the AC50 under setting [1] is 6.31 µM [rising, full curve, poor fit].

For `Nc1c(S(=O)(=O)c2ccccc2)c2nc3ccccc3nc2n1/N=C/c1cccc(O)c1`, the AC50 was 17.8 µM [rising, single point] under setting [2] and 35.5 µM [rising, single point] under setting [1].
